# According to the supplement of paper PMC8728848:
# The other results are listed elsewhere or left out.
# How the values were obtained:
# Experiment in all cases: glycan array binding signal (z-score within array); higher = stronger binding
# Conditions in all cases: glycan notation: IUPAC condensed, linker removed
# [1] = target: Fuc(a1-2)Gal(b1-4)GlcNAc(b1-3)Gal(b1-4)GlcNAc(b1-2)Man(a1-3)[Fuc(a1-2)Gal(b1-4)GlcNAc(b1-3)Gal(b1-4)GlcNAc(b1-2)Man(a1-6)]Man(b1-4)GlcNAc(b1-4)GlcNAc
# In short: (§1)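 Columns mapping to the same glycan were averaged after glycan names were converted to IUPAC-condensed notation. The data come from 3228 arrays in the Consortium for Functional Glycomics database, limited to those with an available protein sequence. Binding is reported as a within-array Z-score averaged across arrays of one protein sequence and across linkers.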
# [2] = target: Fuc(a1-2)Gal(b1-4)GlcNAc(b1-3)Gal(b1-4)GlcNAc(b1-3)Gal(b1-4)GlcNAc
# In short: as §1
# [3] = target: Fuc(a1-2)Gal(b1-4)GlcNAc(b1-3)GalNAc
# In short: as §1
# [4] = target: Fuc(a1-2)Gal(b1-4)GlcNAc(b1-3)[Fuc(a1-2)Gal(b1-4)GlcNAc(b1-6)]GalNAc
# In short: as §1
# [5] = target: Fuc(a1-2)Gal(b1-4)GlcNAc(b1-3)[Fuc(a1-3)[Gal(b1-4)]GlcNAc(b1-6)]Gal(b1-4)Glc
# In short: as §1
# [6] = target: Fuc(a1-2)Gal(b1-4)GlcNAc(b1-6)GalNAc
# In short: as §1
# [7] = target: Fuc(a1-2)Gal(b1-4)GlcNAc6S
# In short: as §1
# [8] = target: Fuc(a1-2)Gal(b1-4)[Fuc(a1-3)]GlcNAc
# In short: as §1
# [9] = target: Fuc(a1-2)Gal(b1-4)[Fuc(a1-3)]GlcNAc(b1-2)Man(a1-3)[Fuc(a1-2)Gal(b1-4)[Fuc(a1-3)]GlcNAc(b1-2)Man(a1-6)]Man(b1-4)GlcNAc(b1-4)[Fuc(a1-6)]GlcNAc
# In short: as §1
# [10] = target: Fuc(a1-2)Gal(b1-4)[Fuc(a1-3)]GlcNAc(b1-2)[Fuc(a1-2)Gal(b1-4)[Fuc(a1-3)]GlcNAc(b1-4)]Man(a1-3)[Fuc(a1-2)Gal(b1-4)[Fuc(a1-3)]GlcNAc(b1-2)Man(a1-6)]Man(b1-4)GlcNAc(b1-4)GlcNAc
# In short: as §1
# [11] = target: Fuc(a1-2)Gal(b1-4)[Fuc(a1-3)]GlcNAc(b1-3)Gal(b1-4)[Fuc(a1-3)]GlcNAc
# In short: as §1
# [12] = target: Fuc(a1-2)Gal(b1-4)[Fuc(a1-3)]GlcNAc(b1-3)Gal(b1-4)[Fuc(a1-3)]GlcNAc(b1-3)Gal(b1-4)[Fuc(a1-3)]GlcNAc
# In short: as §1
# [13] = target: Fuc(a1-2)Gal(b1-4)[Fuc(a1-3)]GlcNAc(b1-3)GalNAc
# In short: as §1
# [14] = target: Fuc(a1-2)Gal(b1-4)[Fuc(a1-3)]GlcNAc(b1-3)[Neu5Ac(a2-6)Gal(b1-4)GlcNAc(b1-6)]Gal(b1-4)Glc
# In short: as §1
# [15] = target: Fuc(a1-2)Gal3S(b1-4)GlcNAc
# In short: as §1
# [16] = target: Fuc(a1-2)Gal6S(b1-3)GlcNAc
# In short: as §1
# [17] = target: Fuc(a1-2)Gal6S(b1-3)GlcNAc6S
# In short: as §1
# Fuc(a1-2)Gal6S(b1-4)Glc = target: Fuc(a1-2)Gal6S(b1-4)Glc
# In short: as §1
# [18] = target: Fuc(a1-2)Gal6S(b1-4)Glc6S
# In short: as §1
# Fuc(a1-2)[Gal(a1-3)]Gal = target: Fuc(a1-2)[Gal(a1-3)]Gal
# In short: as §1
# [19] = target: Fuc(a1-2)[Gal(a1-3)]Gal(b1-3)GalNAc
# In short: as §1
# [20] = target: Fuc(a1-2)[Gal(a1-3)]Gal(b1-3)GalNAc(b1-3)Gal(a1-4)Gal(b1-4)Glc
# In short: as §1
# [21] = target: Fuc(a1-2)[Gal(a1-3)]Gal(b1-3)GlcNAc
# In short: as §1
# [22] = target: Fuc(a1-2)[Gal(a1-3)]Gal(b1-3)GlcNAc(b1-2)Man(a1-3)[Fuc(a1-2)[Gal(a1-3)]Gal(b1-3)GlcNAc(b1-2)Man(a1-6)]Man(b1-4)GlcNAc(b1-4)GlcNAc
# In short: as §1
# [23] = target: Fuc(a1-2)[Gal(a1-3)]Gal(b1-3)GlcNAc(b1-2)Man(a1-3)[Fuc(a1-2)[Gal(a1-3)]Gal(b1-3)GlcNAc(b1-2)Man(a1-6)]Man(b1-4)GlcNAc(b1-4)[Fuc(a1-6)]GlcNAc
# In short: as §1
# [24] = target: Fuc(a1-2)[Gal(a1-3)]Gal(b1-3)GlcNAc(b1-3)GalNAc
# In short: as §1
# [25] = target: Fuc(a1-2)[Gal(a1-3)]Gal(b1-3)GlcNAc(b1-6)GalNAc
# In short: as §1
# [26] = target: Fuc(a1-2)[Gal(a1-3)]Gal(b1-4)Glc
# In short: as §1
# [27] = target: Fuc(a1-2)[Gal(a1-3)]Gal(b1-4)GlcNAc
# In short: as §1
# [28] = target: Fuc(a1-2)[Gal(a1-3)]Gal(b1-4)GlcNAc(b1-2)Man
# In short: as §1
binder,measurement,setting,value
SabA (Helicobacter pylori) (protein) MGSSHHHHHHSSGLVPRGSHMENLYFQGEDNGFFVSAGYQIGEAVQMVKNTGELKNLNEKYEQLSQYLNQVASLKQSIQNANNIELVNSSLNYLKSFTNNNYNSTTQSPIFNAVQAVITSVLGFWSLYAGNYFTFFVGKKVGDSGQPASVQGNPPFKTIIENCSGIENCAMDQTTYDKMKKLAEDLQAAQTNSATKGNNLCALSGCAATDSTSNPPNSTVSNALNLAQQLMDLIANTKTAMMWKNIVISGVSNTSGAITSTNYPTQYAVFNNIKAMIPILQQAVTLSQSNHTLSASLQAQATGSQTNPKFAKDIYTFAQNQKQVISYAQDIFNLFNSIPAEQYKYLEKAYLKIPNAGSTPTNPYRQVVNLNQEVQTIKNNVSYYGNRVDAALSVARDVYNLKSNQAEIVTAYNDAKTLSEEISKLPHNQVNTKDIVTLPYDKNAPAAGQSNYQINPEQQSNLNQALAAMSNNPFKKVGMISSQNNNGA,glycan array binding signal (z-score),[1],0.579
same,glycan array binding signal (z-score),[2],-0.249
same,glycan array binding signal (z-score),[3],0.238
same,glycan array binding signal (z-score),[4],0.517
same,glycan array binding signal (z-score),[5],-0.656
same,glycan array binding signal (z-score),[6],-0.198
same,glycan array binding signal (z-score),[7],-0.069
same,glycan array binding signal (z-score),[8],-0.472
same,glycan array binding signal (z-score),[9],-0.199
same,glycan array binding signal (z-score),[10],0.216
same,glycan array binding signal (z-score),[11],-0.91
same,glycan array binding signal (z-score),[12],-0.728
same,glycan array binding signal (z-score),[13],2.43
same,glycan array binding signal (z-score),[14],-0.245
same,glycan array binding signal (z-score),[15],-0.692
same,glycan array binding signal (z-score),[16],-0.748
same,glycan array binding signal (z-score),[17],3.74
same,glycan array binding signal (z-score),Fuc(a1-2)Gal6S(b1-4)Glc,0.534
same,glycan array binding signal (z-score),[18],0.738
same,glycan array binding signal (z-score),Fuc(a1-2)[Gal(a1-3)]Gal,-0.033
same,glycan array binding signal (z-score),[19],0.111
same,glycan array binding signal (z-score),[20],0.168
same,glycan array binding signal (z-score),[21],-0.4
same,glycan array binding signal (z-score),[22],0.056
same,glycan array binding signal (z-score),[23],1.23
same,glycan array binding signal (z-score),[24],-0.109
same,glycan array binding signal (z-score),[25],0.249
same,glycan array binding signal (z-score),[26],0.498
same,glycan array binding signal (z-score),[27],-0.42
same,glycan array binding signal (z-score),[28],-0.411

# Retrieved one by one from the list above:
binder,measurement,setting,value
SabA (Helicobacter pylori) (protein) MGSSHHHHHHSSGLVPRGSHMENLYFQGEDNGFFVSAGYQIGEAVQMVKNTGELKNLNEKYEQLSQYLNQVASLKQSIQNANNIELVNSSLNYLKSFTNNNYNSTTQSPIFNAVQAVITSVLGFWSLYAGNYFTFFVGKKVGDSGQPASVQGNPPFKTIIENCSGIENCAMDQTTYDKMKKLAEDLQAAQTNSATKGNNLCALSGCAATDSTSNPPNSTVSNALNLAQQLMDLIANTKTAMMWKNIVISGVSNTSGAITSTNYPTQYAVFNNIKAMIPILQQAVTLSQSNHTLSASLQAQATGSQTNPKFAKDIYTFAQNQKQVISYAQDIFNLFNSIPAEQYKYLEKAYLKIPNAGSTPTNPYRQVVNLNQEVQTIKNNVSYYGNRVDAALSVARDVYNLKSNQAEIVTAYNDAKTLSEEISKLPHNQVNTKDIVTLPYDKNAPAAGQSNYQINPEQQSNLNQALAAMSNNPFKKVGMISSQNNNGA,glycan array binding signal (z-score),[8],-0.472
same,glycan array binding signal (z-score),[24],-0.109
